# Results of single-concentration screens

By UniProt entry, the sequences of proteins in these tests, tags left out.
UniProt P9WPC5, whole entry: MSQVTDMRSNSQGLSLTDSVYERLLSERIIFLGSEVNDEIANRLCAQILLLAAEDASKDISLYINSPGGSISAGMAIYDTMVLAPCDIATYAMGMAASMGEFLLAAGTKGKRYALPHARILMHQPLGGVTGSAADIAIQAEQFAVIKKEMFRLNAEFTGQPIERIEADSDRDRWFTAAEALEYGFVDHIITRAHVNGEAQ
UniProt P9WPC3, whole entry partner: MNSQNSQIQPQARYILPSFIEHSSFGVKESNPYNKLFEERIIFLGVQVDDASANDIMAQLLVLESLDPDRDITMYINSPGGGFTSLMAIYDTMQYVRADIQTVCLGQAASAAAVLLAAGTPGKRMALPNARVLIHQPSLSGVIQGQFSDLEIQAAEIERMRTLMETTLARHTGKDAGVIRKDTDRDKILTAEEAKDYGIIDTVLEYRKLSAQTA
UniProt P9WNZ1, whole entry: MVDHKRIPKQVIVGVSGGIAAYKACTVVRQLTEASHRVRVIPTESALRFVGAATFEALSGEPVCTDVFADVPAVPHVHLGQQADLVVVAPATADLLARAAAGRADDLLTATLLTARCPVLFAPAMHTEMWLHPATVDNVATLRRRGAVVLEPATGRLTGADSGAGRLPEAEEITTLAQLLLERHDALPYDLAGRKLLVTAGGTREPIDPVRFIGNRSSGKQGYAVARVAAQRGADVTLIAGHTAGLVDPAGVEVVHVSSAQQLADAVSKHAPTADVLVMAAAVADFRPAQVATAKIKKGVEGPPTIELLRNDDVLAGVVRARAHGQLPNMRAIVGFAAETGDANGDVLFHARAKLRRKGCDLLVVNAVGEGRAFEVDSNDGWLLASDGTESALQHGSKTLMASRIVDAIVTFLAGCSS

Source: ChEMBL document CHEMBL3988442, “University of Dundee, Small-Polar-MMV Screening Library” (2021).

Each number is a percent effect as filed.
How 0% and 100% were set is not recorded. Most values in the screen are low, and negative values occur.
This is an unselected part of the compounds tested.

Toxoplasma: 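Assay of Toxoplasma gondii numbers, read through their beta-galactosidase reporter with a colour substrate. Tested at 10 µM. The record gives no direction; the compounds picked for IC50 retests had high values, so higher reads as fewer parasites. About 67,000 compounds were tested under these conditions; 0.38% (about 260) showed 50% or more at least once.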
ClpP1P2: 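Protease assay of ClpP1P2, read by the AMC dye that it sets free. Target: ClpP1P2, Mycobacterium tuberculosis (UniProt P9WPC5 and UniProt P9WPC3). Compounds at 50 µM. Higher reads as stronger inhibition, judged from the few compounds that gave an IC50. Most other retested compounds had strongly negative values. Size under these conditions: about 69,000 compounds, about 10 of them at 50% or above in at least one test.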
T. brucei: 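Whole-parasite assay of Trypanosoma brucei over 72 hours; the read-out is not stated. Compounds at 30 µM. The record gives no direction; compounds that gave an IC50 in retests scored well above the rest, so higher reads as stronger inhibition. Values scatter widely below zero; nearly all retest evidence comes from the higher of the two concentrations used. About 64,000 compounds were tested under these conditions; 1.5% (about 940) showed 50% or more at least once.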
CoaBC: 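Enzyme assay of CoaBC with a phosphate dye (Biomol Green) read at 650 nm. Target: Coenzyme A biosynthesis protein CoaBC, Mycobacterium tuberculosis (UniProt P9WNZ1). Concentration: 30 µM. Higher reads as stronger inhibition, judged from the few compounds that gave an IC50. Most strong results did not repeat in a second test. Size under these conditions: about 67,000 compounds, about 40 of them at 50% or above in at least one test.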

With CCCn1ccnc1CN1CCN(C2CCOCC2)CC(C(N)=O)C1 (stereo unspecified) the screen gave Toxoplasma: -2.179%; ClpP1P2: 11.35%; T. brucei: -23.8%; CoaBC: 0.8674%.
With COCCNC(=O)c1cc(OC)ccc1Br the screen gave Toxoplasma: 1.617%; ClpP1P2: 11.55%; T. brucei: -12.47%; CoaBC: -5%.
With Cc1ccc(CN2CC[C@@H](NS(C)(=O)=O)[C@@H]2Cc2ccncc2)o1 the screen gave ClpP1P2: -0.6213%.
With Fc1cccc(C2CCCN2Cc2nnnn2C2CC2)c1 (stereo unspecified) the screen gave Toxoplasma: 9.519%; ClpP1P2: -15.82%; T. brucei: -14.96%; CoaBC: 1.786%.
With O=C(O)C(F)(F)F.O=C(c1cscn1)N1CCC2(CCN(Cc3cccs3)CC2)C1 the screen gave Toxoplasma: -1.56%.
With Cc1nc(C2CCN(Cc3ncc[nH]3)CC2)no1 the screen gave ClpP1P2: -2.796%; CoaBC: -0.2433%.
With O=C(c1cccnc1)N1CCCC2(COCCN(c3ccccc3)C2)C1 (stereo unspecified) the screen gave ClpP1P2: 5.789%; CoaBC: 0%.
With c1cc(-c2cnccn2)cc(-c2ccn(CCCN3CCCCC3)n2)c1 the screen gave Toxoplasma: -3.188%; ClpP1P2: 3.688%; T. brucei: 2.843%; CoaBC: -15.02%.
With CCC1CN(C(=O)c2cncc(C)c2)CCC(=O)N1Cc1ccccc1 (stereo unspecified) the screen gave Toxoplasma: 12.14%; ClpP1P2: 1.193%; T. brucei: -40.7%; CoaBC: 8.606%.
With CS(=O)(=O)CCn1ccc(NC(=O)Cc2c[nH]c3ccccc23)n1 the screen gave Toxoplasma: 19.09%; ClpP1P2: -5.612%; T. brucei: -9.107%; CoaBC: -31.25%.
With COc1c(CNC2CCc3c(Cl)cccc32)c(C)nn1C.Cl (stereo unspecified) the screen gave Toxoplasma: 0.4405%; T. brucei: 33.55%.
With CCc1nccn1C1CCCN(C(=O)c2cc[nH]n2)C1 (stereo unspecified) the screen gave Toxoplasma: 1.796%; ClpP1P2: -15.6%; T. brucei: -2.388%; CoaBC: -4.842%.
With CN(CC1CCCCO1)c1nc(-c2cccnc2)nc2c1CCNC2 (stereo unspecified) the screen gave Toxoplasma: 1.311%; ClpP1P2: 13.44%; T. brucei: 12.65%; CoaBC: 8.261%.
With COc1ccc(CN2CCOCC3(CCN(C4CCOCC4)C3)C2)cc1 (stereo unspecified) the screen gave ClpP1P2: -7.417%; CoaBC: 0%.
With Cc1nn(C)c(N(C)C)c1CNCC(O)COc1ccc(F)cc1 (stereo unspecified) the screen gave Toxoplasma: -1.423%; ClpP1P2: 0.1595%; T. brucei: -71.7%; CoaBC: 1.919%.
With O=C(O)C(F)(F)F.O=C(O)C(F)(F)F.[H][C@@]12C[C@H](C(=O)NCC3CC3)N(C)[C@]1([H])CN(Cc1ccc(C)o1)C2 the screen gave Toxoplasma: -19.29%; T. brucei: -60.6%.
With FC(F)(F)CCc1ccnc(NCc2csc(N3CCOCC3)n2)n1 the screen gave Toxoplasma: -3.308%; ClpP1P2: 3.287%; T. brucei: 21.45%; CoaBC: 9.13%.
With CCOc1cccc(C(C)NCc2c(C)nn(C)c2N(C)C)c1 (stereo unspecified) the screen gave Toxoplasma: 2.757%; ClpP1P2: -7.884%; CoaBC: 0.7168%.
With COc1cccc(-c2noc(C3CCN(CC(N)=O)C3)n2)c1 (stereo unspecified) the screen gave Toxoplasma: -1.633%; ClpP1P2: 2.591%; T. brucei: -3.338%; CoaBC: -1.325%.
With O=C(O)C(c1cccc2c1OCC2)N1CCC(N2CCCC2)CC1 (stereo unspecified) the screen gave Toxoplasma: 3.432%; ClpP1P2: -6.337%; T. brucei: 0.5019%; CoaBC: 9.719%.
With COc1ccc(Cc2ncc3c(n2)CN(C(=O)C(C)(C)OC)C3)cc1 the screen gave Toxoplasma: 6.282%; ClpP1P2: 5.629%; T. brucei: -2.135%; CoaBC: -11.32%.
With Cc1oc(NC(=O)C(C)N2CCN(C(C)(C)CO)CC2)c(C#N)c1C (stereo unspecified) the screen gave Toxoplasma: -17.89%; ClpP1P2: 2.646%; T. brucei: -16.09%; CoaBC: -6.723%.
With O=C(NCCNc1ccccn1)NCC1CCS(=O)(=O)C1 (stereo unspecified) the screen gave Toxoplasma: 5.133%; ClpP1P2: 3.45%; T. brucei: -28.83%; CoaBC: -1.945%.
With CC(=O)N1CCC(c2n[nH]cc2-c2ccnc(N)c2)C1 (stereo unspecified) the screen gave Toxoplasma: 20.34%; ClpP1P2: -0.6818%; T. brucei: -2.575%; CoaBC: 4.731%.
With Cc1cccc(OCC2CCCN(C(=O)CN(C)C3CCNCC3)C2)c1 (stereo unspecified) the screen gave Toxoplasma: -0.4756%; ClpP1P2: 3.316%; T. brucei: 6.222%; CoaBC: -31.61%.
With Cn1cc(CN2C[C@@H]3CN(C(=O)c4cccn4C)CCO[C@@H]3C2)cn1 the screen gave ClpP1P2: -8.94%; CoaBC: -0.7426%.
With Cc1cnn(CCNCc2nc(COc3ccc(F)cc3)no2)c1 the screen gave Toxoplasma: -7.763%; ClpP1P2: 23.59%; T. brucei: 2.221%; CoaBC: -3.457%.
With Cc1cccnc1C(=O)N1C[C@@H]2CC[C@H](Oc3cccc(F)c3)[C@@H]2C1 the screen gave ClpP1P2: -11.65%; CoaBC: -0.1239%.
With Cc1nn(C)c2ncc(S(=O)(=O)N3CCN4CCCC4C3)cc12 (stereo unspecified) the screen gave Toxoplasma: 2.663%; ClpP1P2: -9.374%; T. brucei: -6.685%; CoaBC: -0.4132%.
With Cc1nn(C(C)C)c(C)c1NC(=O)c1ccncc1 the screen gave Toxoplasma: 13.22%; ClpP1P2: -3.288%; T. brucei: 8.808%; CoaBC: 3.656%.

For reference, 3 entries once more:

- Cn1cc(CN2C[C@@H]3CN(C(=O)c4cccn4C)CCO[C@@H]3C2)cn1 : ClpP1P2: -8.94%; CoaBC: -0.7426%
- CCC1CN(C(=O)c2cncc(C)c2)CCC(=O)N1Cc1ccccc1 (stereo unspecified) : Toxoplasma: 12.14%; ClpP1P2: 1.193%; T. brucei: -40.7%; CoaBC: 8.606%
- CC(=O)N1CCC(c2n[nH]cc2-c2ccnc(N)c2)C1 (stereo unspecified) : Toxoplasma: 20.34%; ClpP1P2: -0.6818%; T. brucei: -2.575%; CoaBC: 4.731%